Results from PMC11437497.
These are yes or no findings as the source states them, for the method shown. Binding seen in cells or lysates may run through a third protein. Some binding calls cover weakened binding; strength is not graded here. Tags and fused reporters may be left off the sequences shown.

Sequences of proteins named here, by UniProt entry; tags and fusion partners are left off.
UniProt P0DTC4: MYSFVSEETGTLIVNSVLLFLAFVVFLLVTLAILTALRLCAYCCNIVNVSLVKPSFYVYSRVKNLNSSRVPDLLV

T1: adaptor protein complex 3 subunit B1 (AP3B1), HA-tagged (human) (UniProt O00203)
T1 sequence: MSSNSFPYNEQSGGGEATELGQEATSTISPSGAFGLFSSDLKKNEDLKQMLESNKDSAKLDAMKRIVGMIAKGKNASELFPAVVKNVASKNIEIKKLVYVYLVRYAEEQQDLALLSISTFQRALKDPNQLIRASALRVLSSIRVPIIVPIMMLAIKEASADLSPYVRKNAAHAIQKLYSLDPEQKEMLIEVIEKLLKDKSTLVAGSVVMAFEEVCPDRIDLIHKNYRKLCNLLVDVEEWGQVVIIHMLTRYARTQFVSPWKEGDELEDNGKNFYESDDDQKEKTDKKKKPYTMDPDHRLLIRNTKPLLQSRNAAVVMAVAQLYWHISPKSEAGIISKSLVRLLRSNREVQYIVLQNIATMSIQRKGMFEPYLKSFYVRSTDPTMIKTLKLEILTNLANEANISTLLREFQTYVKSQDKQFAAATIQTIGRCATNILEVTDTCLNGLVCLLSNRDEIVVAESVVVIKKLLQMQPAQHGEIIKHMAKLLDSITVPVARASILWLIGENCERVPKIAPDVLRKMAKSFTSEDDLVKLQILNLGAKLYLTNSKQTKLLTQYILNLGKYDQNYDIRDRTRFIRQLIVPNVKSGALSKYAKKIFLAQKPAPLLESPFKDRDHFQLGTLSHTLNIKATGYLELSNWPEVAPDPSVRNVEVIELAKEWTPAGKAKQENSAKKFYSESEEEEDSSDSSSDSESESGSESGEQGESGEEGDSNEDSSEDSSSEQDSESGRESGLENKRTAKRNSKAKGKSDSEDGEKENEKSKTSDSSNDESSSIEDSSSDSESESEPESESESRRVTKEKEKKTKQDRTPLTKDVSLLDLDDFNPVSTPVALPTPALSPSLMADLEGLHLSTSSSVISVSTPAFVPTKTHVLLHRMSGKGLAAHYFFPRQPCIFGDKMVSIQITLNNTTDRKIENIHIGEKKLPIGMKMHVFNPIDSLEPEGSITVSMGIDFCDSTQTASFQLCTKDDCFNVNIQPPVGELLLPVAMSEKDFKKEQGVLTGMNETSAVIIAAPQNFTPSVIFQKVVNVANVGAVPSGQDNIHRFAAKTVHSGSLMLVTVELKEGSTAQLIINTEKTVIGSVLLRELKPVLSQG


Legend:
[1] = target: T1, adaptor protein complex 3 subunit B1 (AP3B1), HA-tagged (human); experiment: co-IP
[2] = target: SARS-CoV-2 envelope (E) protein, FLAG-tagged (SARS-CoV-2) (UniProt P0DTC4); experiment: co-IP

| Molecule | binding [1] | binding [2] |
| --- | --- | --- |
| SARS-CoV-2 envelope (E) protein, FLAG-tagged (from UniProt P0DTC4 1-75) | binds | – |
| adaptor protein complex 3 subunit B1 (AP3B1), HA-tagged (protein, UniProt O00203 1-1094) MSSNSFPYNEQSGGGEATELGQEATSTISPSGAFGLFSSDLKKNEDLKQMLESNKDSAKLDAMKRIVGMIAKGKNASELFPAVVKNVASKNIEIKKLVYVYLVRYAEEQQDLALLSISTFQRALKDPNQLIRASALRVLSSIRVPIIVPIMMLAIKEASADLSPYVRKNAAHAIQKLYSLDPEQKEMLIEVIEKLLKDKSTLVAGSVVMAFEEVCPDRIDLIHKNYRKLCNLLVDVEEWGQVVIIHMLTRYARTQFVSPWKEGDELEDNGKNFYESDDDQKEKTDKKKKPYTMDPDHRLLIRNTKPLLQSRNAAVVMAVAQLYWHISPKSEAGIISKSLVRLLRSNREVQYIVLQNIATMSIQRKGMFEPYLKSFYVRSTDPTMIKTLKLEILTNLANEANISTLLREFQTYVKSQDKQFAAATIQTIGRCATNILEVTDTCLNGLVCLLSNRDEIVVAESVVVIKKLLQMQPAQHGEIIKHMAKLLDSITVPVARASILWLIGENCERVPKIAPDVLRKMAKSFTSEDDLVKLQILNLGAKLYLTNSKQTKLLTQYILNLGKYDQNYDIRDRTRFIRQLIVPNVKSGALSKYAKKIFLAQKPAPLLESPFKDRDHFQLGTLSHTLNIKATGYLELSNWPEVAPDPSVRNVEVIELAKEWTPAGKAKQENSAKKFYSESEEEEDSSDSSSDSESESGSESGEQGESGEEGDSNEDSSEDSSSEQDSESGRESGLENKRTAKRNSKAKGKSDSEDGEKENEKSKTSDSSNDESSSIEDSSSDSESESEPESESESRRVTKEKEKKTKQDRTPLTKDVSLLDLDDFNPVSTPVALPTPALSPSLMADLEGLHLSTSSSVISVSTPAFVPTKTHVLLHRMSGKGLAAHYFFPRQPCIFGDKMVSIQITLNNTTDRKIENIHIGEKKLPIGMKMHVFNPIDSLEPEGSITVSMGIDFCDSTQTASFQLCTKDDCFNVNIQPPVGELLLPVAMSEKDFKKEQGVLTGMNETSAVIIAAPQNFTPSVIFQKVVNVANVGAVPSGQDNIHRFAAKTVHSGSLMLVTVELKEGSTAQLIINTEKTVIGSVLLRELKPVLSQG | – | binds |
